No constants are given. Whether binding was seen depends on the method and setting. Some results given as binding are weak or reduced against the parent protein; the word gives no strength.
Legend:
Test in all cases: SEC
p110γ R1021C = p110γ R1021C (UniProt P48736)
p110γ R1021P = p110γ R1021P (UniProt P48736)
[1] = target: p110γ, wild type (catalytic subunit of PI3Kγ, encoded by PIK3CG) (UniProt P48736)

Amino acid sequences for entries named in this document (tags omitted). A change or cut given only in a name is not applied to a line headed by its entry.
UniProt P48736, whole entry: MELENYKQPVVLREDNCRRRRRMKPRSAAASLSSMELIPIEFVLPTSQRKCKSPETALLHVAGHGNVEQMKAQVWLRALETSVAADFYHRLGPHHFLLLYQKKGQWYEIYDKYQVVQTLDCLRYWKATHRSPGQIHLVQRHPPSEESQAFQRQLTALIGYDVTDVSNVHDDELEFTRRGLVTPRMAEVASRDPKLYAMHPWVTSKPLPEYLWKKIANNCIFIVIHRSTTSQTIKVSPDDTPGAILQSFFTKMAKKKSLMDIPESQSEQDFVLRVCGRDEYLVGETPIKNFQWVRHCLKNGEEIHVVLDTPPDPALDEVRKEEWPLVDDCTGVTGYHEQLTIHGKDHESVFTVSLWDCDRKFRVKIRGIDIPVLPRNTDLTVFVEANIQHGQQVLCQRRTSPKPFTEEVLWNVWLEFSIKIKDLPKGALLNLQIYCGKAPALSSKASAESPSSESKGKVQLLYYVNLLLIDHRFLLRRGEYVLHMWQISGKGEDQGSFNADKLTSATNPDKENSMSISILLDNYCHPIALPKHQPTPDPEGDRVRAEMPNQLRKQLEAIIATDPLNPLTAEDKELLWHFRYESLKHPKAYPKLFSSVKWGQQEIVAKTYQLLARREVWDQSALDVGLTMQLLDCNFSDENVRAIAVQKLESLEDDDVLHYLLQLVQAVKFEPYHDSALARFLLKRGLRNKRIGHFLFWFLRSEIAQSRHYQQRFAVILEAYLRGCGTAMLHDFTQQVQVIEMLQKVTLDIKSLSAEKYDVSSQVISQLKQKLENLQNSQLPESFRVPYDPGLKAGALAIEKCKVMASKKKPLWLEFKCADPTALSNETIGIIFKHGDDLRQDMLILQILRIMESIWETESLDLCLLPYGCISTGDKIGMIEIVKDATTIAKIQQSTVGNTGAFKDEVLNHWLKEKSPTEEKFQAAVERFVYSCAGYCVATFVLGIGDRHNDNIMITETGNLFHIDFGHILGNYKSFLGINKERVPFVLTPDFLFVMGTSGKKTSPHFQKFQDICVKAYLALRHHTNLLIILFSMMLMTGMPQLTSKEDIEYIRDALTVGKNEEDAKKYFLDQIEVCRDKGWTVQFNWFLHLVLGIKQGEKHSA

Measured: binding

B1: p101 regulatory subunit of PI3Kγ (protein, UniProt O02696 1-877)
chain: MQPGATTCTEDRIQHALERCLHGLSLSRRSTSWSAGLCLNCWSLQELVSRDPGHFLILLEQILQKTREVQEKGTYDLLAPLALLFYSTVLCTPHFPPDSDLLLKAARTYHRFLTWPVPYCSICQELLTFIDAELKAPGISYQRLVRAEQGLSTRSHRSSTVTVLLLNPVEVQAEFLDVADKLSTPGPSPHSAYITLLLHAFQATFGAHCDLSGLHRRLQSKTLAELEAIFTETAEAQELASGIGDAAEARQWLRTKLQAVGEKAGFPGVLDTAKPGKLRTIPIPVARCYTYSWNQDSFDILQEILLKEQELLQPEILDDEEDEDEEDEEEDLDADGHCAERDSVLSTGSAASHASTLSLASSQASGPTLSRQLLTSFVSGLSDGVDSGYMEDIEESAYERPRRPGGHERRGHRRPGQKFNRIYKLFKSTSQMVLRRDSRSLEGSPDSGPPLRRAGSLCSPLDSPTLPPSRAQGSRSLPQPKLSPQLPGWLLAPASRHQRRRPFLSGDEDPKASTLRVVVFGSDRISGKVVRAYSNLRRLENNRPLLTRFFKLQFFYVPVKRSRGTGTPTSPAPRSQTPPLPTDAPRHPGPAELGAAPWEESTNDISHYLGMLDPWYERNVLGLMHLPPEVLCQSLKAEPRPLEGSPAQLPILADMLLYYCRFAARPVLLQVYQTELTFITGEKTTEIFIHSLELGHSAATRAIKASGPGSKRLGIDGDREAVPLTLQIIYSKGAISGRSRWSNMEKLCTSVNLSKACRQQEELDSSTEALTLNLTEVVKRQTPKSKKGFNQISTSQIKVDKVQIIGSNSCPFAVCLDQDERKILQSVIRCEVSPCYKPEKSSLCPPPQRPSYPPAPATPDLCSLLCLPIMTFSGALP
binds: p110γ R1021C | p110γ R1021P | [1]
